# The other results are listed elsewhere or left out.
# Columns and labels:
# Experiment in all cases: glycan array binding signal (z-score within array); higher = stronger binding
# Conditions in all cases: glycan notation: IUPAC condensed, linker removed
# [1] = molecular target: Man(a1-2)Man(a1-3)[Man(a1-2)Man(a1-6)]Man(a1-6)[Man(a1-2)Man(a1-2)Man(a1-3)]Man
# Method in brief: (§1)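 Negative Z-scores can be read as non-binding. The Z-score is calculated within each array and then averaged across arrays of one protein sequence at different concentrations or buffers and across linkers. Arrays, 3228 in all, were curated from the Consortium for Functional Glycomics database and kept only where the protein sequence was available.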
# [2] = molecular target: Man(a1-2)Man(a1-3)[Man(a1-2)Man(a1-6)]Man(a1-6)[Man(a1-2)Man(a1-2)Man(a1-3)]Man(b1-4)GlcNAc(b1-4)GlcNAc
# Method in brief: as §1
# [3] = molecular target: Man(a1-2)Man(a1-3)[Man(a1-6)]Man(a1-6)[Man(a1-2)Man(a1-3)]Man(b1-4)GlcNAc(b1-4)GlcNAc
# Method in brief: as §1
# [4] = molecular target: Man(a1-2)Man(a1-6)[Man(a1-3)]Man(a1-6)[Man(a1-2)Man(a1-2)Man(a1-3)]Man
# Method in brief: as §1
# [5] = molecular target: Man(a1-2)Man(a1-6)[Man(a1-3)]Man(a1-6)[Man(a1-2)Man(a1-2)Man(a1-3)]Man(b1-4)GlcNAc(b1-4)GlcNAc
# Method in brief: as §1
# Man(a1-3)[Man(a1-6)]Man = molecular target: Man(a1-3)[Man(a1-6)]Man
# Method in brief: as §1
# [6] = molecular target: Man(a1-3)[Man(a1-6)]Man(a1-6)[Man(a1-2)Man(a1-3)]Man(b1-4)GlcNAc(b1-4)GlcNAc
# Method in brief: as §1
# [7] = molecular target: Man(a1-3)[Man(a1-6)]Man(a1-6)[Man(a1-3)]Man
# Method in brief: as §1
# [8] = molecular target: Man(a1-3)[Man(a1-6)]Man(a1-6)[Man(a1-3)]Man(b1-4)GlcNAc(b1-4)GlcNAc
# Method in brief: as §1
# [9] = molecular target: Man(a1-3)[Man(a1-6)]Man(b1-4)GlcNAc(b1-4)GlcNAc
# Method in brief: as §1
# [10] = molecular target: Man(a1-3)[Man(a1-6)]Man(b1-4)GlcNAc(b1-4)[Fuc(a1-6)]GlcNAc
# Method in brief: as §1
# Man(a1-6)Man = molecular target: Man(a1-6)Man
# Method in brief: as §1
# Man(b1-4)GlcNAc = molecular target: Man(b1-4)GlcNAc
# Method in brief: as §1
# MurNAc(b1-4)GlcNAc = molecular target: MurNAc(b1-4)GlcNAc
# Method in brief: as §1
# Neu5Ac(a2-3)Gal = molecular target: Neu5Ac(a2-3)Gal
# Method in brief: as §1
# [11] = molecular target: Neu5Ac(a2-3)Gal(b1-3)GalNAc
# Method in brief: as §1
# [12] = molecular target: Neu5Ac(a2-3)Gal(b1-3)GalNAc(b1-3)Gal(a1-4)Gal(b1-4)Glc
# Method in brief: as §1
# [13] = molecular target: Neu5Ac(a2-3)Gal(b1-3)GalNAc(b1-4)[Neu5Ac(a2-3)]Gal(b1-4)Glc
# Method in brief: as §1
# [14] = molecular target: Neu5Ac(a2-3)Gal(b1-3)GalNAc(b1-4)[Neu5Ac(a2-8)Neu5Ac(a2-3)]Gal(b1-4)Glc
# Method in brief: as §1
# [15] = molecular target: Neu5Ac(a2-3)Gal(b1-3)GalNAc6S
# Method in brief: as §1
# [16] = molecular target: Neu5Ac(a2-3)Gal(b1-3)GlcNAc
# Method in brief: as §1
# [17] = molecular target: Neu5Ac(a2-3)Gal(b1-3)GlcNAc(b1-2)Man
# Method in brief: as §1
# [18] = molecular target: Neu5Ac(a2-3)Gal(b1-3)GlcNAc(b1-2)Man(a1-3)[GlcNAc(b1-4)][Neu5Ac(a2-3)Gal(b1-3)GlcNAc(b1-2)Man(a1-6)]Man(b1-4)GlcNAc(b1-4)GlcNAc
# Method in brief: as §1
# [19] = molecular target: Neu5Ac(a2-3)Gal(b1-3)GlcNAc(b1-2)Man(a1-3)[Neu5Ac(a2-3)Gal(b1-3)GlcNAc(b1-2)Man(a1-6)]Man(b1-4)GlcNAc(b1-4)GlcNAc
# Method in brief: as §1
# [20] = molecular target: Neu5Ac(a2-3)Gal(b1-3)GlcNAc(b1-3)Gal(b1-3)GlcNAc
# Method in brief: as §1
# [21] = molecular target: Neu5Ac(a2-3)Gal(b1-3)GlcNAc(b1-3)Gal(b1-4)GlcNAc
# Method in brief: as §1
# [22] = molecular target: Neu5Ac(a2-3)Gal(b1-3)GlcNAc(b1-3)GalNAc
# Method in brief: as §1
# [23] = molecular target: Neu5Ac(a2-3)Gal(b1-3)GlcNAc(b1-4)Gal(b1-4)Glc
# Method in brief: as §1
# [24] = molecular target: Neu5Ac(a2-3)Gal(b1-3)GlcNAc(b1-6)GalNAc
# Method in brief: as §1
# [25] = molecular target: Neu5Ac(a2-3)Gal(b1-3)GlcNAc6S
# Method in brief: as §1
# [26] = molecular target: Neu5Ac(a2-3)Gal(b1-3)[Fuc(a1-4)]GlcNAc
# Method in brief: as §1
# [27] = molecular target: Neu5Ac(a2-3)Gal(b1-3)[Fuc(a1-4)]GlcNAc(b1-3)Gal(b1-3)[Fuc(a1-4)]GlcNAc
# Method in brief: as §1
# [28] = molecular target: Neu5Ac(a2-3)Gal(b1-3)[Fuc(a1-4)]GlcNAc(b1-3)Gal(b1-4)[Fuc(a1-3)]GlcNAc
# Method in brief: as §1
# [29] = molecular target: Neu5Ac(a2-3)Gal(b1-3)[GlcNAc(b1-6)]GalNAc
# Method in brief: as §1
# [30] = molecular target: Neu5Ac(a2-3)Gal(b1-3)[Neu5Ac(a2-6)]GalNAc
# Method in brief: as §1
# [31] = molecular target: Neu5Ac(a2-3)Gal(b1-3)[Neu5Ac(a2-6)]GlcNAc(b1-3)[Fuc(a1-3)[Gal(b1-4)]GlcNAc(b1-6)]Gal(b1-4)Glc
# Method in brief: as §1
# [32] = molecular target: Neu5Ac(a2-3)Gal(b1-3)]Neu5Ac(a2-3)Gal(b1-4)]GlcNAc
# Method in brief: as §1
# Neu5Ac(a2-3)Gal(b1-4)Glc = molecular target: Neu5Ac(a2-3)Gal(b1-4)Glc
# Method in brief: as §1
# [33] = molecular target: Neu5Ac(a2-3)Gal(b1-4)GlcNAc
# Method in brief: as §1
# [34] = molecular target: Neu5Ac(a2-3)Gal(b1-4)GlcNAc(b1-2)Man
# Method in brief: as §1
# [35] = molecular target: Neu5Ac(a2-3)Gal(b1-4)GlcNAc(b1-2)Man(a1-3)[GlcNAc(b1-4)][Neu5Ac(a2-3)Gal(b1-4)GlcNAc(b1-2)Man(a1-6)]Man(b1-4)GlcNAc(b1-4)GlcNAc
# Method in brief: as §1
# [36] = molecular target: Neu5Ac(a2-3)Gal(b1-4)GlcNAc(b1-2)Man(a1-3)[Neu5Ac(a2-3)Gal(b1-4)GlcNAc(b1-2)Man(a1-6)]Man(b1-4)GlcNAc(b1-4)GlcNAc
# Method in brief: as §1
# [37] = molecular target: Neu5Ac(a2-3)Gal(b1-4)GlcNAc(b1-2)Man(a1-3)[Neu5Ac(a2-3)Gal(b1-4)GlcNAc(b1-2)Man(a1-6)]Man(b1-4)GlcNAc(b1-4)[Fuc(a1-6)]GlcNAc
# Method in brief: as §1
# [38] = molecular target: Neu5Ac(a2-3)Gal(b1-4)GlcNAc(b1-2)Man(a1-3)[Neu5Ac(a2-6)Gal(b1-4)GlcNAc(b1-2)Man(a1-6)]Man(b1-4)GlcNAc(b1-4)GlcNAc
# Method in brief: as §1
# [39] = molecular target: Neu5Ac(a2-3)Gal(b1-4)GlcNAc(b1-2)[Neu5Ac(a2-3)Gal(b1-4)GlcNAc(b1-4)]Man(a1-3)[GlcNAc(b1-4)][Neu5Ac(a2-3)Gal(b1-4)GlcNAc(b1-2)[Neu5Ac(a2-3)Gal(b1-4)GlcNAc(b1-6)]Man(a1-6)]Man(b1-4)GlcNAc(b1-4)GlcNAc
# Method in brief: as §1
binder,measurement,setting,value
pilr alpha (protein) MLYGVTQPKHLSASMGGSVEIPFSFYYPWELATAPDVRISWRRGHFHRQSFYSTRPPSIHKDYVNRLFLNWTEGQKSGFLRISNLQKQDQSVYFCRVELDTRSSGRQQWQSIEGTKLSIT,glycan array binding signal (z-score),[1],0.506
same,glycan array binding signal (z-score),[2],-0.19
same,glycan array binding signal (z-score),[3],0.363
same,glycan array binding signal (z-score),[4],0.278
same,glycan array binding signal (z-score),[5],-0.021
same,glycan array binding signal (z-score),Man(a1-3)[Man(a1-6)]Man,-0.008
same,glycan array binding signal (z-score),[6],-0.054
same,glycan array binding signal (z-score),[7],-0.019
same,glycan array binding signal (z-score),[8],1.32
same,glycan array binding signal (z-score),[9],-0.357
same,glycan array binding signal (z-score),[10],-0.08
same,glycan array binding signal (z-score),Man(a1-6)Man,1.2
same,glycan array binding signal (z-score),Man(b1-4)GlcNAc,0.185
same,glycan array binding signal (z-score),MurNAc(b1-4)GlcNAc,-0.076
same,glycan array binding signal (z-score),Neu5Ac(a2-3)Gal,-0.92
same,glycan array binding signal (z-score),[11],-0.231
same,glycan array binding signal (z-score),[12],0.025
same,glycan array binding signal (z-score),[13],-0.367
same,glycan array binding signal (z-score),[14],-0.149
same,glycan array binding signal (z-score),[15],-0.67
same,glycan array binding signal (z-score),[16],0.233
same,glycan array binding signal (z-score),[17],-0.606
same,glycan array binding signal (z-score),[18],-0.235
same,glycan array binding signal (z-score),[19],0.101
same,glycan array binding signal (z-score),[20],-0.035
same,glycan array binding signal (z-score),[21],-0.013
same,glycan array binding signal (z-score),[22],-0.652
same,glycan array binding signal (z-score),[23],-0.638
same,glycan array binding signal (z-score),[24],-0.073
same,glycan array binding signal (z-score),[25],0.095
same,glycan array binding signal (z-score),[26],-0.616
same,glycan array binding signal (z-score),[27],0.274
same,glycan array binding signal (z-score),[28],-0.971
same,glycan array binding signal (z-score),[29],-0.383
same,glycan array binding signal (z-score),[30],-0.4
same,glycan array binding signal (z-score),[31],-0.552
same,glycan array binding signal (z-score),[32],-0.162
same,glycan array binding signal (z-score),Neu5Ac(a2-3)Gal(b1-4)Glc,0.431
same,glycan array binding signal (z-score),[33],-0.33
same,glycan array binding signal (z-score),[34],-0.018
same,glycan array binding signal (z-score),[35],-0.908
same,glycan array binding signal (z-score),[36],-0.298
same,glycan array binding signal (z-score),[37],-0.569
same,glycan array binding signal (z-score),[38],0.094
same,glycan array binding signal (z-score),[39],-1.02

# Reference: the supplement of paper PMC8728848
